# Source: PubChem BioAssay AID493014 (National Center for Advancing Translational Sciences (NCATS), 2011)
# About 170 (0.05%) of roughly 340,000 compounds were called active. The shares of active, inactive and inconclusive entries below differ from those in the screen. Calls follow the shape of the dose curve; as a rule, active = well fitted inhibition curve with a large enough effect in the signal ratio, with a control signal flat (not every such curve was filed as active); inconclusive = small, poorly fitted or top-dose-only effect, or effect the other way, or a change in a side signal; inactive = flat fitted curve, though single readings scatter; the % refers to the signal ratio. Where the call is inconclusive, the potency comes from a doubtful curve fit.
# Assay: qHTS Assay to Find Inhibitors of Chronic Active B-Cell Receptor Signaling;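 as to activity change, negative = inhibition: plate controls were basal doxycycline-induced cells for no effect and cells given 10 µM MG132 for full effect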
# Conditions: ABC-DLBCL IkBa-CBG/CBR reporter, luminescence ratio (green luciferase fused to IkBa over red control in TMD8 lymphoma cells), 4 h; activity change, negative = inhibition: at 46.1 µM (top of the series) unless noted
# Method in brief: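 Concentration-response series (up to 46 uM) were applied to TMD8 dual-reporter cells for 4 h at 37C with doxycycline. Green/red ratio, after filter-overlap correction, defined %Activity; red signal alone was normalised to basal cells and zero luminescence.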
# Potency is read from the fitted curve at half-maximal effect.
SMILES,"activity change, negative = inhibition",Potency
CCCSc1nn2c(=O)c3ccccc3nc2s1,inconclusive: -2.41%,
CCC(CC)C(=O)Nc1cc([N+](=O)[O-])ccc1Cl,inconclusive: -2.14%,
COc1ccc(C(=O)C[n+]2cc(Br)cc3ccccc32)cc1[N+](=O)[O-],inconclusive: -1.32%,
Cc1cc(C(=O)COC(=O)c2ccco2)c(C)n1Cc1ccco1,inactive: 0.166%,
Fc1ccccc1-c1nc(NCCCN2CCOCC2)c2ccccc2n1,inactive: 2.84%,
CC1CN(S(=O)(=O)c2cccc(-c3csc(-c4ccccc4)n3)c2)CC(C)O1 (centres undefined),inconclusive: 20.9%,
COc1cc(OC)c2c(-c3cccc(-c4ccc(C(C)=O)cc4)c3)cc(=O)oc2c1,,"inconclusive: 9.2 µM [falling, partial curve]"
CC1OC(OC2C(OC3C(O[C@H]4CC[C@]5(C)C6C=C[C@]78OC[C@@]9(CC[C@@H](C)[C@H](C)C97)[C@H](O)C[C@@]8(C)[C@]6(C)CC[C@H]5C4(C)C)OC(C)C(O)C3O)OC(CO)C(O)C2O)C(O)C(O)C1O (some centres undefined),,"inconclusive: 15.8 µM [rising, partial curve, poor fit]"
C=CCOc1nc2c(c(=O)n(C)c(=O)n2C)n1Cc1ccccc1,inactive: 11.3%,
CC(=O)Oc1ccc2c(c1)O/C(=C\c1ccncc1)C2=O,inconclusive: -6.97%,
COc1cc(NS(C)(=O)=O)c(OC)cc1NC(=O)c1cccc(F)c1,inconclusive: 2.44%,
Cn1c(CCNC(=O)c2ccco2)nc2cc(NC(=O)c3ccccc3)ccc21,,"inconclusive: 22.4 µM [falling, partial curve]"
Fc1ccc(-n2ncc3c(NC4CCCCCC4)ncnc32)cc1,,"inconclusive: 35.5 µM [falling, single point]"
CCOC(CNC(=O)c1ccc2nc(N3CCC(C)CC3)sc2c1)OCC,inconclusive: -28.2%,
CC(=O)c1cc(C(=O)Nc2ccc(C(=O)O)cc2)oc1C,,"inconclusive: 14.6 µM [falling, partial curve]"
COCCN(CCOC)c1nc(-c2ccccc2)nc2ccccc12,inconclusive: 4.05%,
Cc1ccc(NC2=C(Cl)C(=O)OC2OC(=O)c2ccco2)cc1 (centres undefined),inconclusive: 4.21%,
COc1ccc(S(=O)(=O)N2CCCCCC2)cc1C(=O)N1CCCCC1,,"inconclusive: 3.98 µM [rising, full curve, poor fit]"
COc1cc2c(=O)n(Cc3ccccc3)c(=O)n(CC(=O)NCCc3ccccc3)c2cc1OC,inconclusive: 29.7%,
CCOC(=O)/C=C/CN(C(=O)OC(C)(C)C)S(=O)(=O)N1CC=CC1,inconclusive: -2.2%,
Cc1ccc(N/C=C/C(=O)c2cccs2)cc1C,,"inconclusive: 35.5 µM [rising, single point]"
COC(=O)Cc1nc(NC(=O)c2cccs2)sc1C,inconclusive: -24.4%,
CC(=O)c1sc2c(c1OC(=O)c1ccc(Cl)cc1Cl)c(=O)n(-c1ccccc1)c(=S)n2-c1ccccc1,inconclusive: 1.65%,
COc1cccc(CNC(=O)COc2cc3c(c4oc(=O)cc(C)c24)CCC(C)(C)O3)c1,inactive: -9.5%,
COC(=O)N/N=C/c1cc(Br)ccc1O,inconclusive: 1.26%,
COc1cccc(CNC(=O)c2cccc(NC(=O)C3=C(C)OCCS3)c2)c1,,"inconclusive: 15.8 µM [falling, single point]"
CC(C)Oc1cccc(-c2nnc(SCC(=O)Nc3ccc4c(c3)OCCO4)n2N)c1,inactive: -3.33%,

SMILES,"activity change, negative = inhibition",Potency
O=C(Nc1nccs1)C1CCCN1/C=C/C(=O)C(F)(F)F (centres undefined),inconclusive: -1.8%,
Cc1ccc(N2NC(=O)/C(=C/c3ccc(-c4ccc(Cl)c(C(=O)O)c4)o3)C2=O)cc1C,,"inconclusive: 20 µM [falling, single point]"
CCc1ccc(C(O)(C(C)C)C(CN2CCOCC2)c2ccccc2)cc1 (centres undefined),inconclusive: -4.76%,
Cn1cc(CC(=O)N2CCN(c3ccccc3F)CC2)c2ccccc21,inconclusive: 3.41%,
NC(=S)N/N=C1\CC(n2nnn(-c3cccc(Cl)c3)c2=S)C2COC1O2 (centres undefined),,"inconclusive: 14.1 µM [falling, partial curve, poor fit]"
CCOc1ccc(C2=CC(c3cccc(Br)c3)n3c(nc4ccccc43)N2)cc1Cl (centres undefined),,"inconclusive: 22.4 µM [falling, partial curve]"
COc1ccc(NC(=O)c2csc3c2CCCCC3)c(OC)c1,inconclusive: -1.86%,
NNc1nccc(Nc2ccccc2C(=O)O)n1,inconclusive: -18.7%,
Cc1cccc(C(=O)NC(=S)N2CCN(C(=S)NC(=O)c3cccc(C)c3)CC2)c1,inconclusive: -2.7%,
O=C(COC(=O)CCCOc1ccc(Cl)cc1Cl)Nc1cccc(Cl)c1,inconclusive: 6.86%,
COc1cccc(NC(=O)CN(C)C(=O)c2cccnc2Nc2cccc(C(F)(F)F)c2)c1,inconclusive: -7.69%,
CN(C)c1cccc(C(=O)NC2CCCCCC2)c1,,"inconclusive: 25.9 µM [falling, partial curve]"
O=C(NCc1cccs1)c1csc2ccccc12,inconclusive: 13.1%,
Fc1ccc(C2CC(c3ccco3)=NN2c2ccccc2)cc1 (centres undefined),inconclusive: 19.6%,
CC(=O)c1cc(F)c(N2CCN(C(=O)c3ccco3)CC2)cc1C,inactive: 11.6%,
Cc1ccc(NC(=O)CN(C)C(=O)CSc2ncc(C(F)(F)F)cc2Cl)cc1,inactive: 3.23%,
O=S(=O)(Nc1ccc(O)c(Sc2nc3ccccc3s2)c1)c1ccc(Cl)cc1,,"inconclusive: 15.8 µM [falling, single point]"
Cc1nc(-c2ccc(S(=O)(=O)NCC3CCN(C(=O)OC(C)(C)C)CC3)s2)cs1,inconclusive: -4.89%,
Cc1ccc(C2CC2c2n[nH]c(=S)n2-c2cccc(Cl)c2)cc1 (centres undefined),inactive: -4.07%,
O=C(OCC#CCSc1nnc(-c2cccc3ccccc23)o1)c1cccs1,inactive: -17.3%,
Cc1ncc(CN2CCCC(CCC(=O)NCc3ccccc3F)C2)s1 (centres undefined),inconclusive: 5.69%,
CCCn1nnnc1NCc1ccccc1Cl,inactive: 0.163%,
Cc1ccc(-n2cnc3scc(-c4cccs4)c3c2=O)cc1,inactive: -7.06%,
COc1ccc(S(=O)(=O)N2CCOCC2)cc1Br,inconclusive: 2.15%,
O=C(c1cnn2c(C(F)(F)F)cc(-c3ccc4c(c3)OCO4)nc12)N1CCCCC1,inconclusive: -0.472%,
CCN(CC)C(=O)C1CCCN(Cc2nc(-c3cnccn3)no2)C1 (centres undefined),inconclusive: 2.15%,
Cn1c(O)c(N=Nc2ccccc2)c2ccccc21,inconclusive: -1.56%,

SMILES,"activity change, negative = inhibition",Potency
O=C(/C=C/NNC(=O)c1ccccc1)c1ccc([N+](=O)[O-])cc1,,"inconclusive: 5.62 µM [falling, single point]"
COc1ccc2c(CN3CCN(S(=O)(=O)c4cccs4)CC3)cc(=O)oc2c1,,"inconclusive: 2.91 µM [falling, partial curve, poor fit]"
CC(=O)Nc1ccc(S(=O)(=O)N[C@@H](C)C(=O)Nc2ccc(N3CCOCC3)cc2)cc1,inconclusive: 5.55%,
COc1ccc(-n2c(=S)[nH]c3cc(C(=O)Nc4ccccc4OC)ccc3c2=O)c(OC)c1,,"inconclusive: 0.891 µM [falling, partial curve, poor fit]"
Cc1ccc(NC2CC(=O)N(Cc3ccccc3)C2=O)cc1 (centres undefined),inconclusive: -0.415%,
O=C1CC(c2ccccc2)CC(=O)N1c1ccc(C(F)(F)F)cc1,inconclusive: 5.28%,
Cn1c(=O)oc2cc(S(=O)(=O)NCCN3CCN(c4ccccc4)CC3)ccc21,inactive: -10.1%,
CC(=O)Nc1cccc(/C(C)=N/NC(=S)NC(C)C)c1,inconclusive: -4.54%,
O=C(CS(=O)(=O)c1ccccc1)Nc1nc(-c2ccccc2)cs1,inconclusive: 11.8%,
CCOC(=O)C(C)n1ncn2cccc2c1=O (centres undefined),inconclusive: -0.315%,
COc1ccc(-c2nc(N)nc(C)c2Oc2ccccc2Br)c(O)c1,,"inconclusive: 0.651 µM [rising, full curve, poor fit]"
COc1ccc(CNc2nc3ccccc3n2C)c(OC)c1,inactive: 6.82%,
Cc1ccc(S(=O)(=O)N2CCN(CC(=O)N/N=C\c3ccc(O)c(O)c3)CC2)cc1,inconclusive: -1.45%,
CC(Oc1ccc(Cl)cc1Cl)c1ccnc2nc(N3CCOCC3)nn12 (centres undefined),inconclusive: -8.77%,
Cc1cccc(N2CCN(C(=O)c3c(C)nn(Cc4ccccc4Cl)c3C)CC2)c1C,,"inconclusive: 29.1 µM [falling, single point]"
COc1ccc(N2CCN(CC(=O)NCc3ccccc3)CC2)cc1,inconclusive: -7.94%,
O=C(NN1CCOCC1)c1cc(-c2cccs2)nc2ccccc12,inactive: 8.69%,
C/C(=N/NC(=O)c1ccncc1)c1ccc(NC(=O)c2ccccc2)cc1,inconclusive: -16.1%,
COc1c(/C=N/Nc2ccc(C(=O)O)cc2)c(CCN(C)C(C)=O)cc2c1OCO2,,"inconclusive: 35.5 µM [rising, single point]"
CCNc1nc(-c2cc3ccccc3o2)cs1,,"inconclusive: 16.4 µM [falling, single point]"
COc1ccc(/C=C2\SC(N)=NC2=O)cc1Br,,"inconclusive: 15.8 µM [falling, partial curve, poor fit]"
CSCCC(NS(=O)(=O)c1ccccc1F)C(=O)Nc1cccc(C)n1 (centres undefined),inactive: 2.69%,
CCCNC(=O)C1CCN(S(=O)(=O)c2c(C)noc2/C=C\c2ccc(OC)cc2)CC1,,"inconclusive: 23.1 µM [falling, single point]"
Cc1ccc(N2CC(NC(=O)c3cccc(Cl)c3)CC2=O)cc1C (centres undefined),inactive: -25.1%,
COc1ccc(NC(=O)CSc2nnc(-c3ccncc3)o2)c(OC)c1,inactive: 2.25%,
